Data from the primary screen of doi:10.1371/journal.pone.0140310, rounded.

Every entry is a combination with BI-D1870 at 1 µM: CC(C)CCN1c2nc(Nc3cc(F)c(O)c(F)c3)ncc2N(C)C(=O)C1C (configuration not stated)

Drug key:
SU6656, 2 µM: CN(C)S(=O)(=O)c1ccc2c(c1)/C(=C/c1cc3c([nH]1)CCCC3)C(=O)N2
KU-55933, 5 µM: O=c1cc(-c2cccc3c2Sc2ccccc2S3)oc(N2CCOCC2)c1
vatalanib, 10 µM: Clc1ccc(Nc2nnc(Cc3ccncc3)c3ccccc23)cc1
vincristine, 0.0005 µM: CC[C@]1(O)C[C@H]2CN(CCc3c([nH]c4ccccc34)[C@@](C(=O)OC)(c3cc4c(cc3OC)N(C=O)[C@H]3[C@@](O)(C(=O)OC)[C@H](OC(C)=O)[C@]5(CC)C=CCN6CC[C@]43[C@@H]65)C2)C1
pazopanib, 2 µM: Cc1ccc(Nc2nccc(N(C)c3ccc4c(C)n(C)nc4c3)n2)cc1S(N)(=O)=O
Src-I1, 10 µM: COc1cc2ncnc(Nc3ccc(Oc4ccccc4)cc3)c2cc1OC
nilotinib, 1 µM: Cc1cn(-c2cc(NC(=O)c3ccc(C)c(Nc4nccc(-c5cccnc5)n4)c3)cc(C(F)(F)F)c2)cn1
OSU-03012, 5 µM: NCC(=O)Nc1ccc(-n2nc(C(F)(F)F)cc2-c2ccc3c(ccc4ccccc43)c2)cc1
GSK0660, 5 µM: COC(=O)c1sccc1S(=O)(=O)Nc1ccc(Nc2ccccc2)cc1OC
PD173074, 0.5 µM: CCN(CC)CCCCNc1ncc2cc(-c3cc(OC)cc(OC)c3)c(NC(=O)NC(C)(C)C)nc2n1
indole-3-carbinol, 4 µM: OCc1c[nH]c2ccccc12
enzastaurin, 4 µM: Cn1cc(C2=C(c3cn(C4CCN(Cc5ccccn5)CC4)c4ccccc34)C(=O)NC2=O)c2ccccc21
sorafenib, 2 µM: CNC(=O)c1cc(Oc2ccc(NC(=O)Nc3ccc(Cl)c(C(F)(F)F)c3)cc2)ccn1
tanespimycin, 0.01 µM: C=CCNC1=C2C[C@@H](C)C[C@H](OC)[C@H](O)[C@@H](C)/C=C(\C)[C@H](OC(N)=O)[C@@H](OC)/C=C\C=C(/C)C(=O)NC(=CC1=O)C2=O
NVP-TAE684, 0.4 µM: COc1cc(N2CCC(N3CCN(C)CC3)CC2)ccc1Nc1ncc(Cl)c(Nc2ccccc2S(=O)(=O)C(C)C)n1
SNS-032, 0.05 µM: CC(C)(C)c1cnc(CSc2cnc(NC(=O)C3CCNCC3)s2)o1
A-769662, 10 µM: N#Cc1c(O)c2c(-c3ccc(-c4ccccc4O)cc3)csc2[nH]c1=O
temozolomide, 10 µM: Cn1nnc2c(C(N)=O)ncn2c1=O
erlotinib, 4 µM: C#Cc1cccc(Nc2ncnc3cc(OCCOC)c(OCCOC)cc23)c1
nutlin-3, 0.5 µM: COc1ccc(C2=N[C@@H](c3ccc(Cl)cc3)[C@@H](c3ccc(Cl)cc3)N2C(=O)N2CCNC(=O)C2)c(OC(C)C)c1
fingolimod, 10 µM: CCCCCCCCc1ccc(CCC(N)(CO)CO)cc1
OSI-906, 2 µM: C[C@]1(O)C[C@@H](c2nc(-c3ccc4ccc(-c5ccccc5)nc4c3)c3c(N)nccn32)C1
YM155, 0.002 µM: COCC[n+]1c2c(n(Cc3cnccn3)c1C)C(=O)c1ccccc1C2=O

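Human melanoma cells were exposed to two drugs together for 72 h in 1,536-well plates and read by automated microscopy after fixing and staining. The read-out is the fraction of cleaved-PARP-positive nuclei, in % of that fraction in the DMSO control; 200 means twice the control level of this apoptosis marker. Concentrations were fixed for each drug; these are the higher of two levels. The file gives one value for each pair and line, without errors, so small differences may be noise. The marker varies much from line to line, for technical or biological reasons.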 An unselected part of the screen is shown. A dash means that no value is listed here.

Partner	SK-MEL-30	SK-MEL-2	WM3526	SK-MEL-5	WM3619	501mel	UACC-257	C32	WM1745	A101D	MeWo	RPMI-7951	A375	COLO 829	IPC-298
fingolimod	508	118	331	244	161	2720	104	890	-	3250	251	300	41.3	90.0	102
OSU-03012	858	237	159	160	128	324	48.6	68.7	111	100	107	68.8	275	83.7	230
enzastaurin	61.6	688	434	47.4	80.0	56.2	36.0	86.9	-	154	329	276	42.9	168	93.7
KU-55933	38.8	44.0	111	265	153	99.0	54.1	105	109	205	204	95.4	75.7	78.5	79.1
GSK0660	123	94.7	179	409	133	49.0	31.6	103	89.5	194	86.0	33.5	105	49.2	35.6
SNS-032	68.9	162	165	138	172	128	63.8	312	99.0	326	138	143	62.8	112	52.8
YM155	193	682	1570	5310	149	162	632	103	115	78.0	496	594	108	133	119
erlotinib	79.2	135	207	124	128	131	60.3	90.4	425	156	113	22.1	7.8	110	79.2
vincristine	281	1080	1170	1570	217	211	102	913	-	519	1870	274	196	260	318
A-769662	76.1	194	73.7	111	295	67.0	59.8	81.0	111	170	120	161	64.4	19.8	116
nilotinib	138	83.7	172	162	155	153	84.3	96.2	-	162	160	88.9	67.5	54.5	184
pazopanib	205	-	193	259	165	-	36.5	174	-	198	161	121	110	83.1	65.3
indole-3-carbinol	206	220	169	77.3	125	73.7	70.1	76.2	-	226	43.9	28.0	233	159	211
nutlin-3	138	133	58.3	69.4	152	98.2	39.7	101	-	119	128	144	139	119	55.4
Src-I1	55.8	-	71.2	300	156	-	32.8	119	177	156	120	95.2	24.7	105	32.9
tanespimycin	91.1	290	237	83.4	178	400	49.9	630	-	383	371	462	69.4	188	55.0
sorafenib	110	-	108	138	109	-	28.8	165	-	154	30.1	56.4	63.8	167	49.1
NVP-TAE684	40.0	188	116	135	148	238	54.7	121	685	117	169	91.3	91.3	78.3	72.4
vatalanib	33.6	241	192	180	182	322	25.5	174	-	134	203	71.3	39.3	103	129
SU6656	101	71.4	41.2	45.8	176	-	77.3	107	158	63.8	121	255	26.7	257	54.8
PD173074	102	115	170	74.4	134	134	25.5	91.8	99.5	267	137	68.4	8.2	27.5	78.2
OSI-906	87.3	116	255	163	142	73.0	313	84.0	-	121	147	148	146	120	90.0
temozolomide	74.3	84.7	185	145	175	276	34.2	66.8	98.8	55.2	114	204	42.9	35.0	56.2

For reference, 2 entries once more:

Partner	SK-MEL-30	SK-MEL-2	WM3526	SK-MEL-5	WM3619	501mel	UACC-257	C32	WM1745	A101D	MeWo	RPMI-7951	A375	COLO 829	IPC-298
pazopanib	205	-	193	259	165	-	36.5	174	-	198	161	121	110	83.1	65.3
KU-55933	38.8	44.0	111	265	153	99.0	54.1	105	109	205	204	95.4	75.7	78.5	79.1